Data source: PubChem BioAssay AID602196 (INSERM, 2012)

Screen: 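Knock-downs that protect lung cancer cells from cisplatin or sensitise them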
Cell system: human A549 lung cancer cells
Knock-down reagent: siRNA pair against human genes
Duration: 48 h transfection before cisplatin; time from cisplatin to read-out not stated
Challenge: cisplatin at a dose killing half of control-siRNA cells; exact dose and duration not given
Measurement: 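Shift in cisplatin death relative to control siRNA, from -50 (all cells die) to +50 (no cells die); siRNAs harmful on their own scored 0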
Scale: two-siRNA summed score (-2 to +2): higher = both siRNAs protect from cisplatin killing; -2 means both sensitise; mean protection from cisplatin (shift in death): higher = protection from cisplatin killing
Active means: 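siRNAs harmful alone (LDH or WST-1) get 0; others get +1 for less and -1 for more cisplatin killing; genes are active when the two siRNAs give the same sign, summing to ±2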
Meaning of the calls: active = both siRNAs shift cisplatin killing the same way; inactive = no consistent shift, or siRNA harmful alone
This is a random part of about 23,000 reagents. Of all reagents, 455 (2%) are marked active. 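Active includes both protection and sensitisation; some change values fall well beyond the stated -50 to +50 range.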 Unmarked entries are inactive. The numbers tell different reagents against one gene apart. Further read-outs or replicates are left out here. Not given: the amount of reagent.

STBD1 → two-siRNA summed score (-2 to +2) = 0; mean protection from cisplatin (shift in death) (%) = -1.1
ABHD13 → two-siRNA summed score (-2 to +2) = 0; mean protection from cisplatin (shift in death) (%) = 2
OPN5 #1 → two-siRNA summed score (-2 to +2) = 0; mean protection from cisplatin (shift in death) (%) = 15.5
OPN5 #2 → two-siRNA summed score (-2 to +2) = 1; mean protection from cisplatin (shift in death) (%) = 11.5
PLS3 → two-siRNA summed score (-2 to +2) = -1; mean protection from cisplatin (shift in death) (%) = -4.3
SP140L → two-siRNA summed score (-2 to +2) = -1; mean protection from cisplatin (shift in death) (%) = -12.3
USP49 → two-siRNA summed score (-2 to +2) = 0; mean protection from cisplatin (shift in death) (%) = 11.4
ZNF85 → two-siRNA summed score (-2 to +2) = 0; mean protection from cisplatin (shift in death) (%) = 3.4
SLC6A6 → two-siRNA summed score (-2 to +2) = 0; mean protection from cisplatin (shift in death) (%) = 11.5
SWSAP1 → two-siRNA summed score (-2 to +2) = 0; mean protection from cisplatin (shift in death) (%) = 7.6
BBS12 → two-siRNA summed score (-2 to +2) = 0; mean protection from cisplatin (shift in death) (%) = -0.7
HLA-DRB5 → two-siRNA summed score (-2 to +2) = 0; mean protection from cisplatin (shift in death) (%) = -3
LOC391429 → two-siRNA summed score (-2 to +2) = 1; mean protection from cisplatin (shift in death) (%) = 13
LOC391475 → two-siRNA summed score (-2 to +2) = 0; mean protection from cisplatin (shift in death) (%) = 4.5
WFDC12 → two-siRNA summed score (-2 to +2) = 0; mean protection from cisplatin (shift in death) (%) = -6.8
WDR59 → two-siRNA summed score (-2 to +2) = 0; mean protection from cisplatin (shift in death) (%) = 4.8
CSNK2A2 → two-siRNA summed score (-2 to +2) = 0; mean protection from cisplatin (shift in death) (%) = -10.7
CAMK2A → two-siRNA summed score (-2 to +2) = 0; mean protection from cisplatin (shift in death) (%) = 15.4
TP53BP2 → two-siRNA summed score (-2 to +2) = 0; mean protection from cisplatin (shift in death) (%) = 8.8

Single entries from above.
TP53BP2, mean protection from cisplatin (shift in death) (%) → 8.8
Value for SP140L under “mean protection from cisplatin (shift in death) (%)”: -12.3
For “two-siRNA summed score (-2 to +2)”, ZNF85 has 0
OPN5 #1, mean protection from cisplatin (shift in death) (%) = 15.5
PLS3, two-siRNA summed score (-2 to +2): -1
Value of CSNK2A2 under “two-siRNA summed score (-2 to +2)”: 0

Additional records follow:
LOC400796 → two-siRNA summed score (-2 to +2) = 0; mean protection from cisplatin (shift in death) (%) = -1.1
TAS2R38 → two-siRNA summed score (-2 to +2) = 0; mean protection from cisplatin (shift in death) (%) = -4.3
LOC401721 → two-siRNA summed score (-2 to +2) = 0; mean protection from cisplatin (shift in death) (%) = 5.4
KEL → two-siRNA summed score (-2 to +2) = 0; mean protection from cisplatin (shift in death) (%) = -2.5
HYCC1 → two-siRNA summed score (-2 to +2) = 0; mean protection from cisplatin (shift in death) (%) = -2.4
DZANK1 → two-siRNA summed score (-2 to +2) = 0; mean protection from cisplatin (shift in death) (%) = -2.2
NEO1 → two-siRNA summed score (-2 to +2) = 1; mean protection from cisplatin (shift in death) (%) = 4.5
DENND6B → two-siRNA summed score (-2 to +2) = 0; mean protection from cisplatin (shift in death) (%) = 10.9
MGC22265 → two-siRNA summed score (-2 to +2) = 0; mean protection from cisplatin (shift in death) (%) = 5.9
TIMP1 → two-siRNA summed score (-2 to +2) = 0; mean protection from cisplatin (shift in death) (%) = 10.7
ERICH1 → two-siRNA summed score (-2 to +2) = -1; mean protection from cisplatin (shift in death) (%) = -12.9
ABI3BP → two-siRNA summed score (-2 to +2) = -1; mean protection from cisplatin (shift in death) (%) = -14.7
DBT → two-siRNA summed score (-2 to +2) = 0; mean protection from cisplatin (shift in death) (%) = 7.5
NPPB → two-siRNA summed score (-2 to +2) = 0; mean protection from cisplatin (shift in death) (%) = -16.6
HSFY2 → two-siRNA summed score (-2 to +2) = 2 (active); mean protection from cisplatin (shift in death) (%) = 16.7
LOC283389 → two-siRNA summed score (-2 to +2) = 1; mean protection from cisplatin (shift in death) (%) = 24.7
FOXO3 → two-siRNA summed score (-2 to +2) = 0; mean protection from cisplatin (shift in death) (%) = 0.2
LOC399763 → two-siRNA summed score (-2 to +2) = 1; mean protection from cisplatin (shift in death) (%) = 9.6
ERCC6L2-AS1 → two-siRNA summed score (-2 to +2) = 0; mean protection from cisplatin (shift in death) (%) = 6.7
LOC442399 → two-siRNA summed score (-2 to +2) = 0; mean protection from cisplatin (shift in death) (%) = -0.6
CLDND2 → two-siRNA summed score (-2 to +2) = -1; mean protection from cisplatin (shift in death) (%) = -9.6
